From PubChem BioAssay AID504467 (National Center for Advancing Translational Sciences (NCATS), 2011)
Hit rate of the full screen: of about 330,000 compounds, about 7,700 (2.3%) were called active. The shares of active, inactive and inconclusive entries below differ from those in the screen. Calls follow the shape of the dose curve; as a rule, active = well fitted inhibition curve with a large enough effect; inconclusive = small, poorly fitted or top-dose-only effect, or effect the other way; inactive = flat fitted curve, though single readings scatter. Potencies of inconclusive entries are doubtful fits and often do not repeat.

assay: qHTS screen for small molecules that inhibit ELG1-dependent DNA repair in human embryonic kidney (HEK293T) cells expressing luciferase-tagged ELG1; conditions: HEK293T ELG1-luciferase reporter, luminescence, 16 h, DNA damage induced by 5-fluorouridine; activity change, negative = inhibition: at 46.1 µM (top of the series); also: nearly all actives have a fitted effect of over 55% in size
Summary of the method: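 Reporter activity after DNA damage by 5-fluorouridine is monitored. Compound-treated cells incubate 16 hr at 37 °C, then ONE-Glo is added for 30 min before luminescence reading.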
% is scaled to controls: 0 for no effect and ±100 for the full control effect; potency is read from the fitted curve at half-maximal effect.

Row | Structure (SMILES) | Potency | activity change, negative = inhibition
1 | COc1ccc(NC(=O)CN(C)S(=O)(=O)c2ccc3c(c2)NC(=O)CS3)cc1 | inconclusive: 32.6 µM [inhibitor, partial curve, poor fit] | –
2 | CCOC(=O)c1[nH]c2ccccc2c1NC(=O)c1ccco1 | inconclusive: 35.5 µM [inhibitor, single point] | –
3 | CC(=O)N1CCc2cc(S(=O)(=O)NCCC(=O)N3CCc4ccccc4C3)ccc21 | active: 23.1 µM | –
4 | COc1cc(C(=O)Nc2nc3ccccc3[nH]2)ccc1OC(F)F | inconclusive: 2.59 µM [activator, partial curve] | –
5 | O=C(CSc1nnc(-c2ccccc2)o1)NC(=O)Cc1ccccc1 | inconclusive: 16.4 µM [activator, single point] | –
6 | CCOC(=O)CNC(=O)Cn1c(C)cc2ccccc2c1=O | inactive | –
7 | CC1(C)CC(=O)CC(=O)/C1=N\Nc1c(Cl)cc(Cl)cc1Cl | inconclusive: 16.4 µM [activator, single point] | –
8 | Cn1nc(CC(=O)NCc2ccc(C(F)(F)F)cc2)c2ccccc2c1=O | inconclusive: 13 µM [inhibitor, partial curve, poor fit] | –
9 | Nc1nc2c(ncn2COC(CO)CO)c(=O)[nH]1 | inactive | –
10 | Cc1ccc(C(C)C)c(OCc2ccc(C(=O)N/N=C/c3ccc(O)cc3O)cc2)c1 | inconclusive: 29.1 µM [activator, single point] | –
11 | C=CCn1c(SCC(=O)N2CCOCC2)nc2c([nH]c3ccccc32)c1=O | inactive | –
12 | CN(C)CCCNC(=S)NCC(c1ccc(Cl)cc1Cl)c1c[nH]c2ccccc12 (configuration not stated) | inconclusive: 29.1 µM [inhibitor, single point] | –
13 | Cc1ccc(CC(=O)Nc2cccc(C)n2)cc1 | inconclusive: 11.2 µM [activator, partial curve, poor fit] | –
14 | CCOC(=O)C1=C(N)Oc2c(oc(CO)cc2=O)C1c1c(F)cccc1Cl (configuration not stated) | inconclusive: 20.6 µM [inhibitor, single point] | –
15 | CCOC(=O)C1CCCN(Cc2c(C(=O)N3CCOCC3)nc3ccccn23)C1 (configuration not stated) | inactive | –
16 | Cc1cccc(N2CCN(C(=O)CSc3ccsc3[N+](=O)[O-])CC2C)c1 (configuration not stated) | inconclusive: 23.1 µM [inhibitor, single point] | –
17 | Cc1cc(C)c2nc(N(CCCN(C)C)C(=O)c3ccc(S(=O)(=O)N4CCCCCC4)cc3)sc2c1 | inconclusive: 18.3 µM [inhibitor, single point] | –
18 | COc1ccc(-c2ocnc2C(=O)Nc2ccc(N3CCOCC3)cc2N2CCOCC2)cc1OC | inconclusive: 7.3 µM [inhibitor, partial curve, poor fit] | –
19 | Cc1onc(-c2ccccc2)c1C(=O)NNC(=S)NC(=O)/C=C/c1cccs1 | inactive | –
20 | Cc1ccc(S(=O)(=O)N(C)CC(=O)NNC(=O)CCC(=O)c2ccc(F)cc2)cc1 | inactive | –
21 | Cc1ccnc(NC(=O)c2ccc(S(=O)(=O)N3CCC(C)CC3)cc2)c1 | inconclusive: 0.58 µM [activator, full curve] | –
22 | CCOC(=O)c1ccc(NC(=O)CSc2nnc(NC(=O)c3ccc(S(=O)(=O)N4CCOCC4)cc3)s2)cc1 | inconclusive: 16.4 µM [activator, single point] | –
23 | Cc1ccc(S(=O)(=O)n2cc(C=O)c3ccccc32)cc1 | inconclusive: 32.6 µM [inhibitor, partial curve, poor fit] | –
24 | Cc1ccc(S(=O)(=O)Nc2ccc(O)c3ncccc23)cc1 | active: 3.26 µM | –

Row | Structure (SMILES) | Potency | activity change, negative = inhibition
25 | CCN(c1ccccc1)S(=O)(=O)c1ccc2[nH]cc(C(=O)NCCOC)c(=O)c2c1 | inconclusive: 13 µM [inhibitor, partial curve] | –
26 | Cc1cc(Cl)c2oc(C(=O)NCCN3CCCCC3CO)c(C)c2c1 (configuration not stated) | inactive | –
27 | CC(C)C(NC(=O)c1ccco1)C(=O)NCc1ccc(C(=O)O)cc1 (configuration not stated) | inconclusive: 25.9 µM [activator, partial curve, poor fit] | –
28 | COc1cccc(C2CC(C(F)(F)F)n3ncc(C(=O)NCc4ccco4)c3N2)c1 (configuration not stated) | inconclusive: 16.4 µM [inhibitor, single point] | –
29 | FC(F)(F)Oc1ccc(-c2cn3cccnc3n2)cc1 | inconclusive: 16.4 µM [activator, partial curve] | –
30 | CC(C)CN(C(=O)CSc1nc2ccccc2[nH]1)C1CCS(=O)(=O)C1 (configuration not stated) | inactive | –
31 | Cc1ccc(S(=O)(=O)CC(=O)N(CCCN2CCOCC2)c2nc3c(F)cccc3s2)cc1 | inconclusive: 14.6 µM [activator, partial curve, poor fit] | –
32 | COc1ccccc1OCCNC(=O)Cc1ccc(S(=O)(=O)N2CCOCC2)s1 | inactive | –
33 | COc1ccc(C(=O)COC(=O)c2cc([N+](=O)[O-])ccc2N2CCOCC2)c(OC)c1 | inconclusive: 29.1 µM [inhibitor, partial curve, poor fit] | –
34 | CCCCc1ccc(NC(=O)c2cnccn2)cc1 | inconclusive: 2.59 µM [activator, partial curve] | –
35 | C#CCSc1nncn1C(=O)/C=C/c1ccccc1 | inconclusive: 25.9 µM [activator, partial curve, poor fit] | –
36 | Cc1ccc(S(=O)(=O)Nc2ccc3c(c2)nc(CCN2CCN(c4ccccn4)CC2)n3C)cc1 | inactive | –
37 | O=c1nc2n(c3cc(Cl)c(S(=O)(=O)N4CCOCC4)cc13)CCCCC2 | inconclusive: 6.51 µM [inhibitor, single point] | –
38 | Cc1nn2cc(-c3ccc(Cl)cc3)cnc2c1Br | inconclusive: 4.11 µM [activator, partial curve] | –
39 | O=C(NC1CCCCC1)C(c1ccccn1)N(C(=O)c1csnn1)c1ccccc1F (configuration not stated) | inactive | –
40 | O=C(COc1ccc(/C=N/NC(=O)C(=O)N2CCCCCC2)cc1)Nc1ccccc1Cl | inactive | –
41 | O=C(Nn1cnnc1)c1ccc(Cl)cc1 | inactive | –
42 | Cn1c(Sc2nc3ccccc3n2C)nc2ccccc21 | inconclusive: 18.4 µM [inhibitor, partial curve, poor fit] | –
43 | COc1cc(OC)cc(C(=O)Nc2nc(-c3ccccc3)c(-c3ccccc3)o2)c1 | active: 13 µM | –
44 | Cn1c(CO)cnc1SCc1ccccc1 | inconclusive: 32.6 µM [activator, single point] | –
45 | O=C(CCCCl)NC(=S)Nc1cc(C(F)(F)F)ccc1N1CCOCC1 | inactive | –
46 | CSc1nc2nccc(/C=C\c3ccccc3)n2n1 | inconclusive: 12.6 µM [inhibitor, partial curve, poor fit] | –
47 | O=C1c2ccccc2CCC1C(O)c1ccccn1 (configuration not stated) | inconclusive: 23.1 µM [activator, single point] | –
48 | N#C/C(C(=O)N1CCCCC1)=C1\Nc2ccccc2S1 | inconclusive: 20.6 µM [activator, partial curve] | –

Row | Structure (SMILES) | Potency | activity change, negative = inhibition
49 | C=CCSC1=N/C(=C\c2sccc2C)C(=O)S1 | inactive | –
50 | Cc1ccc(Cn2cccc(-c3nc4ccccc4s3)c2=O)cc1 | inconclusive: 0.651 µM [activator, full curve] | –
51 | Cc1ccccc1OCCn1cc(C(=O)C(=O)N2CCOCC2)c2ccccc21 | inactive | –
52 | Clc1ccccc1-c1nnc2sc(-c3ccc4c(c3)OCO4)nn12 | inactive | –
53 | CN(c1ccc(F)cc1)S(=O)(=O)c1ccc(Cl)c(C(=O)Nc2ccncc2)c1 | active: 11.6 µM | –
54 | CCOC(=O)c1c(-c2ccc(C)o2)csc1NC(=O)CN1CCCCC1 | inactive | –
55 | CN(CC(=O)N1CCCC1)S(=O)(=O)c1ccc(Cl)cc1 | inconclusive: 23.1 µM [activator, partial curve, poor fit] | –
56 | OCCNc1nc(Nc2ccccc2)nc2ccccc12 | inactive | –
57 | COc1ccc(C(=O)COC(=O)c2cccs2)cc1 | inconclusive: 5.8 µM [activator, partial curve] | –
58 | CCc1nc(NCCCn2ccnc2)c2oc3ccccc3c2n1 | inactive | –
59 | Cc1cccc(N2CCN(C(=O)CCn3c(=S)[nH]c4cc5c(cc4c3=O)OCO5)CC2C)c1 (configuration not stated) | active: 10.3 µM | –
60 | CCn1c(SCC(=O)Nc2ccccc2C(=O)OC)nnc1-c1ccc(N)cc1 | – | inconclusive: 25.4% [activator]
61 | Cc1cccc(C(=O)N[C@@H](C)C(=O)N2CCN(c3ncccn3)CC2)c1 | inactive | –
62 | COc1cc2nc(CN(CCC(C)C)Cc3nc4cc(OC)c(OC)cc4c(=O)[nH]3)[nH]c(=O)c2cc1OC | active: 1.46 µM | –
63 | C#CCOCCOCCOCCNc1nc(N2CCN(C(=O)[C@H]([C@@H](C)O)n3cc(CCCCN)nn3)CC2)nc(N2CCN(C(=O)[C@H](CCCCN)n3cc(CCC(=O)O)nn3)CC2)n1 | inconclusive: 28.2 µM [activator, single point] | –
64 | O=C1OCC2=C1C(c1ccccc1)CC(=O)N2c1ccccc1 (configuration not stated) | inactive | –
65 | Cc1[nH]c2ccccc2c1-c1csc(NC(=O)CSCCO)n1 | inconclusive: 18.3 µM [activator, single point] | –
66 | CCOC(=O)c1cnc(Nc2nc3ccccc3o2)nc1CN1CCN(C)CC1 | inconclusive: 18.4 µM [activator, partial curve] | –
67 | CC(C)(C)OC(=O)C[C@@H]1C/C=C\C[C@H](CC(=O)N(CCO)Cc2ccccc2)C(=O)N[C@H](Cc2ccccc2)COC1=O | inconclusive: 23.1 µM [inhibitor, partial curve] | –
68 | O=C(NCc1cccnc1)c1cc(-c2ccco2)on1 | inconclusive: 20.6 µM [activator, partial curve] | –
69 | CCNS(=O)(=O)c1ccc(NC(=O)CC(C)c2ccccc2)cc1 (configuration not stated) | inactive | –
70 | O=C(CSc1nnnn1-c1ccccc1)N1CCc2ccccc2C1 | inactive | –
71 | O=c1c2ccccc2[nH]c(=S)n1CCCN1CCOCC1 | inactive | –
72 | COc1cc(C)ccc1OCCCOc1ccccc1Cl | inconclusive: 12.6 µM [activator, partial curve] | –

Entries from the list above containing a COOH group (2):
Row | Structure (SMILES) | Potency | activity change, negative = inhibition
27 | CC(C)C(NC(=O)c1ccco1)C(=O)NCc1ccc(C(=O)O)cc1 (configuration not stated) | inconclusive: 25.9 µM [activator, partial curve, poor fit] | –
63 | C#CCOCCOCCOCCNc1nc(N2CCN(C(=O)[C@H]([C@@H](C)O)n3cc(CCCCN)nn3)CC2)nc(N2CCN(C(=O)[C@H](CCCCN)n3cc(CCC(=O)O)nn3)CC2)n1 | inconclusive: 28.2 µM [activator, single point] | –
